For two substances, isolated yield results are on record in US4290943 (dated 1981).

The data set is described as follows: general procedure: peptide synthesis; insoluble support material, small globules of 0.1 to 0.2 mm diameter; dicyclohexylcarbodiimide; dicyclohexylcarbodiimide/1-hydroxybenzotriazole (HOBt). The settings on record: whole synthesis.

Turning to “Ddz-Ile-Lys[Z]-Cys[Acm]-Asn-Cys[StBu]-Lys[Z]-Arg[Tos]”, under “with respect to the amino acids initially applied to the support material”, the isolated yield was 34%.

Substance Ddz-Pro-His-Ile-Cys[Acm] displayed an isolated yield of 20%.
